Binding signal data for one sequence are collected here from publication PMC5996148.

The other results are listed elsewhere or left out.

Test systems include Leiomodin-1 (human); M6PRBP1 (human); MAG (human).
Assay in all cases: protein microarray (ProtoArray v5.0), streptavidin-Alexa Fluor 647
Common to all, as to settings: 3'-biotin; 20 mM Tris (pH 7.5), 5 mM MgCl2, 100 mM KCl, 0.1% Tween-20, A/T-rich and random oligonucleotide blockers; temperature not stated; high values mean tight binding

Experiment [1] concerns Leptin receptor gene-related protein (human).
The subject of experiment [2] is Leucine carboxyl methyltransferase 1 (human).
The test system of experiment [3] is Linker for activation of T-cells family member 1 (human).
The subject of experiment [4] is Lipoma HMGIC fusion partner-like 4 protein (human).
The test system of experiment [5] is LisH domain-containing protein ARMC9 (human).
Experiment [6] has as its system Low molecular weight phosphotyrosine protein phosphatase (human).
The subject of experiment [7] is Ly6/PLAUR domain-containing protein 5 (human).

In the case of “GGTGACAGGGGTATGGGGAGGGG [G4-2 biotinylated (Ct1)]”, the binding signal with Leiomodin-1 (human) is 6.04 z-score; in [1], -0.378 z-score; in experiment [2], -0.383 z-score; in experiment [3], -0.397 z-score; in experiment [4], -0.374 z-score; in experiment [5], -0.359 z-score. Besides, the binding signal is -0.376 z-score in experiment [6], -0.385 z-score in [7], -0.397 z-score in the experiment on M6PRBP1 (human) and -0.361 z-score with MAG (human).
